Assay results published in patent publication US20140178329A1.
Positions count from the first letter of the chain named. In names and notes the source's numbering stands. Results are given in words; binding and its absence hold for the method and conditions named. Some entries that bind do so weakly or less than the wild type. For part of these data: Sequences can lack the tags named with a protein.

Chains of the proteins cited; added tags and fusions are not shown. Residues count along the entry.
UniProt Q02223, residues 2-54: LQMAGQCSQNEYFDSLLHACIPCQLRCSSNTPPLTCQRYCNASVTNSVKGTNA

T1: human TACI-Fc (human) (UniProt O14836)
T1 sequence (looked up): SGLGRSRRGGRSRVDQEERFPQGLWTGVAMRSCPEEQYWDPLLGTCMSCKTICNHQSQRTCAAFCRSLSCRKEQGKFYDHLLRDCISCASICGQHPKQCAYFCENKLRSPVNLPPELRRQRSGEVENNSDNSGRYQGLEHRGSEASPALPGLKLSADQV

B1: R233A (ligand)
soluble APRIL monomer: AVLTQKQKKQHSVLHLVPINATSKDDSDVTEVMWQPALRRGRGLQAQGYGVRIQDAGVYLLYSQVLFQDVTFTMGQVVSREGQGRQETLFRCIRSMPSHPDRAYNSCYSAGVFHLHQGDILSVIIPRAAAKLNLSPHGTFLGFVKL
B2: R233E (ligand)
soluble APRIL monomer: B1 soluble APRIL monomer with A129E
B3: T175L (ligand)
soluble APRIL monomer: B1 soluble APRIL monomer with T71L, A129R
B4: T175F (ligand)
soluble APRIL monomer: B1 soluble APRIL monomer with T71F, A129R
B5: T175Y (ligand)
soluble APRIL monomer: B1 soluble APRIL monomer with T71Y, A129R
B6: D132A (ligand)
soluble APRIL monomer: B1 soluble APRIL monomer with D28A, A129R

molecular target: human BCMA-Fc (human) (UniProt Q02223); test: receptor-binding ELISA, human BCMA-Fc coated, doubling dilutions of conditioned medium from undiluted, anti-FLAG-HRP; APRIL amounts not matched [BCMA-Fc coating]

binding, binds:
B1
B2
B3
B4
B5
B6

molecular target: T1, human TACI-Fc (human); test: receptor-binding ELISA, human TACI-Fc coated, doubling dilutions of conditioned medium from undiluted, anti-FLAG-HRP; APRIL amounts not matched [TACI-Fc coating]

binding, binds:
B1
B2
B6
